A short description of the assay: qHTS Assay to Find Inhibitors of Chronic Active B-Cell Receptor Signaling. Conditions: ABC-DLBCL IkBa-CBG/CBR reporter, luminescence ratio (green luciferase fused to IkBa over red control in TMD8 lymphoma cells), 4 h. The gist of the method:
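Cell line TMD8 (human ABC DLBCL), stably expressing tet-inducible CBG68-IkBa fusion and CBR; IMDM/0.5% FBS; cpd up to 46 uM; dox induction, 4 h, 37C/5% CO2; dual luminescence; green/red ratio; MG132 control.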
(In general: qHTS replaces the single test concentration by a dilution series.)

Setting [1] is: measured here: CBR red luminescence, cell number.

The text below walks through data of PubChem BioAssay AID493014 (National Center for Advancing Translational Sciences (NCATS), 2011).

The other results are listed elsewhere or left out. The main result of the screen is listed elsewhere. These columns were measured beside it and carry no call. The list favours compounds with an active or inconclusive main result. Potencies come from curve fits of mixed quality, noted in brackets.

In the case of `CCOC(=O)Cc1c(C)nc2c(-c3ccc(Cl)cc3)c[nH]n2c1=O`, the AC50 under setting [1] was 6.51 µM [rising, single point].

In the case of `COCCNC(=O)c1c(N)n(/N=C/c2ccc(F)cc2)c2nc3ccccc3nc12`, the AC50 under setting [1] is 0.708 µM [falling, full curve, poor fit].

On to `CCCOc1ccc(/C=N/Nc2ccc(C(=O)O)cc2)c(OCCC)c1`, for which, under setting [1], the AC50 was 0.251 µM [falling, full curve].

`O=C(/C=C/c1cccc([N+](=O)[O-])c1)n1cnc2ccccc21`: the AC50 under setting [1] is 2.24 µM [falling, full curve, poor fit].

Consider `CSc1nc2ccc(S(=O)(=O)Nc3c(C)n(C)n(-c4ccccc4)c3=O)cc2s1`, for which the AC50 under setting [1] is 2.59 µM [rising, full curve, poor fit].

On to `O=C(Nc1nc(-c2ccc(S(=O)(=O)N3CCCC3)cc2)cs1)C1COc2ccccc2O1` (centres undefined), for which the AC50 under setting [1] was 0.291 µM [rising, full curve].

As for `CCc1ccc2c(c1)c1nnc(NN)nc1n2C`, the AC50 under setting [1] was 5.62 µM [rising, single point].

For the compound `COc1ccc2oc(=O)c(C(=O)OCc3ccccc3)cc2c1`, the AC50 under setting [1] is 6.31 µM [rising, single point].

Consider `Cc1nc(SCC(=O)NCC2CCCO2)nc(C)c1C` (centres undefined), for which, under setting [1], the AC50 was 23.1 µM [rising, single point].

As to `O=C(c1cc2cc(C(F)(F)F)ccc2s1)N1CCOCC1`, under setting [1], the AC50 was 1.12 µM [rising, partial curve].

In the case of `CS(=O)(=O)c1cc([N+](=O)[O-])c(Sc2nc3ccccc3[nH]2)c([N+](=O)[O-])c1`, the AC50 under setting [1] was 29.1 µM [falling, single point] and the AC50 (measured here: IkBa-CBG green luminescence) was 29.1 µM [rising, single point].

As for `COc1ccc(CCn2c(-c3ccncc3)n[nH]c2=S)cc1OC`, the AC50 under setting [1] is 15.8 µM [rising, partial curve, poor fit].

Regarding `O=C(Nc1ccc(S(=O)(=O)Nc2nccs2)cc1)C1=NN(c2ccccc2)C(=O)CC1`, the AC50 under setting [1] was 35.5 µM [falling, single point].

Consider `O=C(Nc1nc(-c2ccc(F)c(F)c2)cs1)C1=COCCO1`, for which the AC50 under setting [1] was 29.1 µM [falling, single point].

Take `c1ccc(CCSc2ncnc3nc[nH]c23)cc1`: the AC50 under setting [1] is 1.46 µM [rising, partial curve, poor fit].

For the compound `Cc1cc(C)n(-c2nc(NCCN(C)C)c3c4c(sc3n2)CCCC4)n1`, the AC50 under setting [1] was 35.5 µM [falling, single point].

For the compound `C/C(=N\NC(=O)c1ccccc1F)c1cccc(NC(=O)c2ccc(C)cc2)c1`, the AC50 under setting [1] is 35.5 µM [falling, single point].

For the compound `Cc1cc(NC(=O)c2cc(-c3ccco3)on2)no1`, the AC50 under setting [1] is 35.5 µM [falling, single point].

Usually AC50 stands for the midpoint of the concentration-response curve, whichever way the signal moves.
